Data as given in PubChem BioAssay AID720505 (Drosophila RNAi Screening Center, 2013).

Purpose: 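Fly regulators or components of the CRAC channel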 (primary screen)
Cells: Drosophila S2R+ cells
Knock-down reagent: long dsRNA against Drosophila genes
Conditions: thapsigargin (2 µM) in calcium-free buffer to empty internal stores, then 2 mM calcium added back
Measured: 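Stores emptied by 2 µM thapsigargin without calcium, then 2 mM calcium re-added; fluo-4 fluorescence followed by FLIPR in 384-well plates, per-well averaged endpoint, raw; two screen passes, some wells retested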
Direction: calcium signal and retest calcium signal: higher = more calcium entry after store depletion
Call rule: 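About 1500 genes called as lowering calcium entry, by varying amounts, judged against per-plate control wells with STIM1 as positive and Rho1 as negative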
Meaning of the calls: active = called as lowering calcium entry; inactive = not called
The deposit covers about 20,000 reagents; shown is an unselected part of those that have a named target and a result. Of all reagents, about 2,100 (10%) were called active. 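Raw plate signals without normalisation; calls rest on control-based scores that were not deposited; replicate 2 separates called from uncalled poorly.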 A plus sign joins genes that one reagent is predicted to hit. Reagent sequences are not shown. Not stated in the record: the amount of reagent, the time to read-out.

target gene,dsRNA,"calcium signal, replicate 1","calcium signal, replicate 2","retest calcium signal, replicate 1","retest calcium signal, replicate 2",call
CG6660,DRSC16087,153,209,,,inactive
pgc,DRSC04099,191,80.9,,,inactive
CG6984,DRSC07013,92.3,120,,,inactive
ninaC,DRSC03579,150,253,,,inactive
MED21,DRSC20932,76.9,243,,,active
CG31288,DRSC14667,262,132,,,inactive
CG32263,DRSC22431,82.4,147,,,inactive
clumsy,DRSC03111,50.5,162,,,inactive
Zip88E,DRSC15562,66.3,101,,,inactive
toe,DRSC09783,104,82.2,,,inactive
asRNA:CR31514 + CG12947,DRSC14575,148,86.7,,,inactive
CG18262,DRSC18149,205,84.5,,,inactive
CG18180,DRSC10304,132,89.2,,,inactive
Cyp4g1,DRSC18459,122,162,,,inactive
CG5958,DRSC02915,163,85.8,,,inactive
CG8563,DRSC10996,79.5,85.5,,,inactive
su(sable),DRSC18839,92.4,127,,,inactive
RpL6,DRSC14323,94.5,78.7,,,inactive
RpL6,DRSC22384,70.1,184,,,inactive
Tim23,DRSC21240,111,132,,,inactive
cort,DRSC02148,90.6,81.3,,,inactive
Mul1,DRSC08174,87,133,,,inactive
CG5664,DRSC11782,83.6,139,,,inactive
twe,DRSC03628,95.5,90.3,,,inactive
Cyp6d5,DRSC16634,109,128,,,inactive
CG6800,DRSC16119,152,140,,,inactive
Rh4 + sina,DRSC11396,121,88.9,,,inactive
Brd7-9,DRSC03017,146,269,,,inactive
CheB98a,DRSC14882,156,160,,,inactive
Inx6,DRSC20579,80.3,114,,,inactive
CG44774,DRSC18342,69.3,192,,,active
CG2983,DRSC00558,217,118,,,inactive
CG10513,DRSC14248,106,101,,,inactive
CG15773,DRSC18079,213,120,,,inactive
Lint-1,DRSC19822,130,65.3,,,inactive
Desat1,DRSC16668,166,112,,,inactive
Kap-alpha1,DRSC11356,120,139,,,inactive
Hsp70Bb + Hsp70Bbb,DRSC15885,163,139,87.8,99.8,inactive
CG5098,DRSC06915,74.5,144,,,active
CG13287,DRSC09961,91.9,122,,,inactive
nerfin-1,DRSC08729,83.8,97.4,,,inactive
CG33308,DRSC01419,159,114,,,inactive
CG12992,DRSC19512,90.5,122,,,inactive
sll,DRSC16271,191,278,,,inactive
CG9416,DRSC07339,113,105,,,inactive
CG13581,DRSC04216,111,166,,,inactive
CG7920,DRSC16346,118,193,,,inactive
CG7920,DRSC21594,112,92.2,,,inactive
Gr39b,DRSC01848,89.3,4392,75.6,100,inactive
tplus3a + tplus3b,DRSC03687,128,10639,,,inactive
CG34176,DRSC00435,188,73.6,,,inactive
CG33269,DRSC10585,119,143,,,inactive
CG15365,DRSC18038,226,79.9,,,inactive
CG15365,DRSC23021,95.7,142,,,inactive
Ance,DRSC01865,115,131,,,inactive
CalpA,DRSC07352,167,161,,,inactive

Called active, among the entries above:
target gene,dsRNA,"calcium signal, replicate 1","calcium signal, replicate 2","retest calcium signal, replicate 1","retest calcium signal, replicate 2",call
MED21,DRSC20932,76.9,243,,,active
CG44774,DRSC18342,69.3,192,,,active
CG5098,DRSC06915,74.5,144,,,active
